The text below walks through data of the supplement of paper PMC4962491.

The assay relates to FaDu. In words: mitochondrial oxygen consumption rate normalised to cell number, Z score over the library; higher = higher oxygen consumption (negative = OCR reduction). The settings on record: treatment time 24 h, assay medium: 5 mM galactose, 5 mM pyruvate, 4 mM glutamine. The protocol: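 Primary screen: FaDu cells were incubated 24 h with Pharmakon 1600 / TDI oncology set compounds at 2 or 10 uM. Mitochondrial-specific OCR (basal minus 2 uM antimycin A) was measured on a Seahorse XF96 in assay medium with 5 mM galactose, 5 mM pyruvate and 4 mM glutamine, then corrected for Hoechst cell number and expressed as a Z score […]. Compounds that cut cell number by >66% were excluded. Two repeats.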

Molecules are shown by their SMILES. Counter-ions that a name gives are not always drawn. ± gives the standard deviation of the averaged measurements. The list shows a part of the results, in another mix than the full data. This data set is noisy: repeats of one test often differ as much as different tests do.

As to `O=C(O)c1cc(=O)c2c(OCC(O)COc3cccc4oc(C(=O)O)cc(=O)c34)cccc2o1`, where the note is “2 µM”, the “mitochondrial oxygen consumption rate normalised” value amounted to 0.0141 ± 1.8. Regarding `CC(=O)c1ccc2c(c1)N(CCCN1CCN(CCO)CC1)c1ccccc1S2`, the “mitochondrial oxygen consumption rate normalised” value (2 µM) turned out to be 0.16 ± 0.51. The same measure, in the same setting: the result for `NC(=O)NO` [Hydroxyurea] reads 0.602 ± 0.14. Turning to `NC(=O)NO`, under “2 µM”, the “mitochondrial oxygen consumption rate normalised” value is -0.116 ± 0.32. Take `Clc1ccccc1C(c1ccccc1)(c1ccccc1)n1ccnc1`: the “mitochondrial oxygen consumption rate normalised” value (2 µM) was 0.123 ± 0.88. As to `CO/N=C1\CN(c2nc3c(cc2F)c(=O)c(C(=O)O)cn3C2CC2)CC1CN` (stereo unspecified), the “mitochondrial oxygen consumption rate normalised” value (2 µM) is -1.04 ± 0.39. Consider `Clc1ccc(COC(Cn2ccnc2)c2ccc(Cl)cc2Cl)cc1` (stereo unspecified), for which the “mitochondrial oxygen consumption rate normalised” value is -1.26 ± 0.54 (2 µM) and -2.19 ± 0.39 (10 µM). As for `CO[C@H]1C(=O)[C@]2(C)[C@@H](OC)C[C@H]3OC[C@@]3(OC(C)=O)[C@H]2[C@H](OC(=O)c2ccccc2)[C@]2(O)C[C@H](OC(=O)[C@H](O)[C@@H](NC(=O)OC(C)(C)C)c3ccccc3)C(C)=C1C2(C)C` [Cabazitaxel], the “mitochondrial oxygen consumption rate normalised” value (2 µM) came out at 0.077 ± 0.35. With `CCCC(C(=O)OCCN(CC)CC)(c1ccccc1)c1ccccc1`, under “2 µM”, the “mitochondrial oxygen consumption rate normalised” value is -0.173 ± 0.27. For `O=S(=O)(O)CCSSCCS(=O)(=O)O`, the “mitochondrial oxygen consumption rate normalised” value (2 µM) stood at 0.21 ± 0.91. On to `CN1CCC[C@H]1c1cccnc1`, for which, for the setting “2 µM”, the “mitochondrial oxygen consumption rate normalised” value is 2.38 ± 1.2.

As for `Cc1cc(CC(C)CC(C)(C)C)n(O)c(=O)c1` (stereo unspecified), the “mitochondrial oxygen consumption rate normalised” value (2 µM) is -3.459 ± 0.0059. Same read-out and setting: then `CCN(CC)C(=O)N1CCN(C)CC1`, with -0.625 ± 1.5; and `O=C(O)c1cc(O)c(O)c(O)c1`, with -0.13 ± 0.095. As to `COc1ccc(-n2nc(CCC(=O)N(C)O)cc2-c2ccc(Cl)cc2)cc1`, the “mitochondrial oxygen consumption rate normalised” value is 0.995 ± 0.43 (2 µM) and -0.88 ± 0.44 (10 µM). On to `O=P(O)(O)C(O)(Cc1cccnc1)P(=O)(O)O`, for which the “mitochondrial oxygen consumption rate normalised” value (2 µM) came out at 0.408 ± 1. `CC(=O)[C@H]1CC[C@H]2[C@@H]3CC=C4C[C@@H](OC(=O)CCC(=O)O)CC[C@]4(C)[C@H]3CC[C@]12C`: the “mitochondrial oxygen consumption rate normalised” value (2 µM) is -0.252 ± 0.4.

Consider `CC(CCc1ccc(O)cc1)NCC(O)c1ccc(O)cc1` (stereo unspecified), for which the “mitochondrial oxygen consumption rate normalised” value (2 µM) came to 0.435 ± 0.4 and the “mitochondrial oxygen consumption rate normalised” value (10 µM) is 0.0984 ± 0.26. Take `CCCCC(CC)COC(=O)c1ccccc1O` (stereo unspecified): the “mitochondrial oxygen consumption rate normalised” value (2 µM) was -0.0197 ± 1. With `CCN(CCCc1ccccc1)CCCc1ccccc1`, the “mitochondrial oxygen consumption rate normalised” value (2 µM) was -0.426 ± 0.98.

For `CC[C@]1(O)C[C@@H]2CN(CCc3c([nH]c4ccccc34)[C@@](C(=O)OC)(c3cc4c(cc3OC)N(C)[C@H]3[C@@](O)(C(=O)OC)[C@H](OC(C)=O)[C@]5(CC)C=CCN6CC[C@]43[C@@H]65)C2)C1`, the “mitochondrial oxygen consumption rate normalised” value (2 µM) is -0.342 ± 0.092. On to `CC[C@]1(O)C[C@@H]2CN(CCc3c([nH]c4ccccc34)[C@@](C(=O)OC)(c3cc4c(cc3OC)N(C)[C@H]3[C@@](O)(C(=O)OC)[C@H](OC(C)=O)[C@]5(CC)C=CCN6CC[C@]43[C@@H]65)C2)C1` [Vinblastine Sulfate], for which the “mitochondrial oxygen consumption rate normalised” value (2 µM) was found to be 0.517 ± 0.36. Regarding `CC1=C(C(=O)O)N2C(=O)[C@@H](NC(=O)[C@H](N)c3ccc(O)cc3)[C@H]2SC1`, for the setting “2 µM”, the “mitochondrial oxygen consumption rate normalised” value was determined as 0.281 ± 0.57. On to `CC(C)(Oc1ccc(C2CC2(Cl)Cl)cc1)C(=O)O` (stereo unspecified), for which the “mitochondrial oxygen consumption rate normalised” value (2 µM) was -0.705 ± 0.13.

For `Nc1nccs1`, the “mitochondrial oxygen consumption rate normalised” value (2 µM) is -0.934 ± 0.3. On the same count and under the same terms, then `NC(=O)c1cccnc1`, with 0.99 ± 0.075. The same measure, in the same setting: then `CCCc1nc(C(C)(C)O)c(C(=O)OCc2oc(=O)oc2C)n1Cc1ccc(-c2ccccc2-c2nnn[nH]2)cc1`, with 0.438 ± 1.2. With `Cn1c(=O)c2c(ncn2CC(O)CO)n(C)c1=O` (stereo unspecified), the “mitochondrial oxygen consumption rate normalised” value (2 µM) was -0.125 ± 0.56. For the compound `C=C(NC(=O)C(=C)NC(=O)c1csc(C2=N[C@@H]3c4csc(n4)[C@H]4NC(=O)c5csc(n5)[C@H]([C@](C)(O)[C@@H](C)O)NC(=O)[C@H]5CSC(=N5)/C(=C/C)NC(=O)[C@H]([C@@H](C)O)NC(=O)c5csc(n5)[C@]3(CC2)NC(=O)[C@H](C)NC(=O)C(=C)NC(=O)[C@H](C)NC(=O)[C@H]([C@@H](C)CC)N[C@@H]2C=Cc3c([C@H](C)O)cc(nc3[C@H]2O)C(=O)O[C@@H]4C)n1)C(N)=O`, the “mitochondrial oxygen consumption rate normalised” value (2 µM) is -0.9 ± 0.74. The same measure, in the same setting: the result for `C[C@@H]1CC2C3C[C@H](F)C4=CC(=O)C=C[C@]4(C)[C@@]3(F)[C@@H](O)C[C@]2(C)[C@@]1(O)C(=O)COC(=O)C(C)(C)C` (stereo partly specified) reads -0.248 ± 0.37; that for `O=C(O)CCc1nc2ccccc2[nH]1`, 0.614 ± 0.81; that for `CCCCCCCCCCCCCCCC[N+](C)(C)C`, -4.59 ± 0.28. `NC(=O)C1(N2CCCCC2)CCN(CCCC(=O)c2ccc(F)cc2)CC1`: the “mitochondrial oxygen consumption rate normalised” value (2 µM) is -0.684 ± 0.17. With `CNC1(C)C2CCC(C2)C1(C)C` (stereo unspecified), for the setting “2 µM”, the “mitochondrial oxygen consumption rate normalised” value amounted to 0.723 ± 0.65. As for `CC[C@]12CCCN3CCc4c(n(c5ccccc45)[C@@](O)(C(=O)OC)C1)[C@@H]32`, the “mitochondrial oxygen consumption rate normalised” value (2 µM) was found to be 0.428 ± 0.86. `CCC(C)(C)c1ccc(CC(C)CN2C[C@@H](C)O[C@@H](C)C2)cc1` (stereo partly specified): under “2 µM”, the “mitochondrial oxygen consumption rate normalised” value was -0.57 ± 0.27. As to `CC1CCN(CCCC(=O)c2ccc(F)cc2)CC1`, the “mitochondrial oxygen consumption rate normalised” value (2 µM) was -0.794 ± 0.38. In the case of `Nc1ccc(S(N)(=O)=O)cc1`, the “mitochondrial oxygen consumption rate normalised” value (2 µM) worked out at 0.749 ± 1.5.

Take `CCOc1nc2cccc(C(=O)OC(C)OC(=O)OC3CCCCC3)c2n1Cc1ccc(-c2ccccc2-c2nn[nH]n2)cc1` (stereo unspecified): for the setting “2 µM”, the “mitochondrial oxygen consumption rate normalised” value is 0.511 ± 1.1. As for `CC(CCc1ccc(O)cc1)NCCc1ccc(O)c(O)c1` (stereo unspecified), for the setting “2 µM”, the “mitochondrial oxygen consumption rate normalised” value was -0.255 ± 0.81. For the compound `C#CC1(O)CC[C@H]2[C@@H]3CCC4=CC(=O)CC[C@@H]4[C@H]3CC[C@@]21CC` (stereo partly specified), the “mitochondrial oxygen consumption rate normalised” value (2 µM) was 0.391 ± 0.065. For `NC[C@H]1O[C@H](O[C@H]2[C@H](O)[C@@H](O[C@H]3O[C@H](CO)[C@@H](O)[C@H](N)[C@H]3O)[C@H](N)C[C@@H]2N)[C@H](N)[C@@H](O)[C@@H]1O`, the “mitochondrial oxygen consumption rate normalised” value (2 µM) was 0.0575 ± 0.058. On the same count and under the same terms, the result for `CC(=O)O[C@]1(C(C)=O)CC[C@H]2[C@@H]3C=C(C)C4=CC(=O)CC[C@]4(C)[C@H]3CC[C@@]21C` reads 0.922 ± 0.79.
